Results reported in publication PMC8091583 (FEBS Open Bio, 2021).
Where a chain is given by its changes, count along the chain named. Results are given in words; binding and its absence hold for the method and conditions named. A result given as binding can be weak or reduced; the word gives no strength. Tags and fused reporters may be left off the sequences shown.

Legend:
Experiment in all cases: two-hybrid; Matchmaker Two-Hybrid System 2, BD-PYL3 or mutants (pGBKT7, bait) and AD-HAB1 (pGADT7, prey) in S. cerevisiae AH109, growth on SD-TLHA at 30 °C; without ABA
[1] = molecular target: T1, BD-PYL3 V108K V107L V192F L111F (Arabidopsis thaliana) (UniProt Q9SSM7)
T1 sequence: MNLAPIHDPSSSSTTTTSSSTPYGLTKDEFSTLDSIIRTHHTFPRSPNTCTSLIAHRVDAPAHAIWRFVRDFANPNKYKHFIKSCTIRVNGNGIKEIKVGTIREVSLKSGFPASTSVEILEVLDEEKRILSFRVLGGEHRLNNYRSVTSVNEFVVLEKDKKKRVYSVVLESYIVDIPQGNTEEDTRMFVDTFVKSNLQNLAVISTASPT

[2] = molecular target: T2, BD-PYL3 V108K V107F V192F L111F (Arabidopsis thaliana) (UniProt Q9SSM7)
T2 sequence: T1 sequence with L107F

[3] = molecular target: T3, BD-PYL3 V108K V107L V192F (Arabidopsis thaliana) (UniProt Q9SSM7)
T3 sequence: T1 sequence with F111L

[4] = molecular target: T4, BD-PYL3 V108K V107F V192F (Arabidopsis thaliana) (UniProt Q9SSM7)
T4 sequence: T1 sequence with L107F, F111L

Measured: binding

AD-HAB1 (169-511) (Arabidopsis thaliana) (domain or fragment)
binds: all assays above
